From PubChem BioAssay AID248 (DTP/NCI, 2004)
The list is a part of this screen's results and no random one: it gathers tests that were run many times, whatever their T/C, doses with no T/C, and many T/C values between a quarter and a half above the control. Further doses and runs are listed elsewhere. T/C: endpoint of the treated group in % of that of the vehicle group. Some doses have a count of surviving animals in place of a T/C: the source holds a T/C of zero for them, seemingly a mark for toxic or unscored doses. Some doses without a T/C left all or most animals alive at the check, yet need not have been tolerated: the source hardly ever lists a survival T/C far under the control, and the zero likely stands for such cases as well. Survivors were counted at the toxicity check, usually on the fifth day, unless a day is given; later deaths do not show. Schedules are NCI's codes, taken here to give the interval after Q, in days (D) or hours (H), and the number of doses after X. Some entries were tested several times; their values stand side by side, smallest first. Counts like (3×) count equal records among those shown. For survival time, the PubChem record calls one and a half times the control and up active, and a quarter to a half above the control has no call in these data; cut-offs in other NCI protocols can differ. Some T/C values are followed by the survivors on the day toxicity was checked, most often the fifth; without a count, all were alive then.

Tested on: L1210 leukemia ip in BDF1 mice, survival T/C
Experiment: NCI In Vivo Anticancer Drug Screen. Data for tumor model L1210 Leukemia (intraperitoneal) in B6D2F1 (BDF1) mice
Settings: higher T/C = longer survival

S=P(N1CC1)(N1CC1)N1CC1
survivor count (T/C endpoint: mean survival time, dose: 64.0 mg/kg/injection, schedule: Q04DX003 (ip), vehicle: saline): 3 of 10, 5 of 10, 5 of 6
survivor count (T/C endpoint: mean survival time, dose: 96.0 mg/kg/injection, schedule: Q01DX001 (ip), vehicle: saline): 0 of 10
survivor count (T/C endpoint: mean survival time, dose: 100.0 mg/kg/injection, schedule: Q01DX001 (ip), vehicle: saline): 6 of 6
survivor count (T/C endpoint: mean survival time, dose: 128.0 mg/kg/injection, schedule: Q01DX001 (oral), vehicle: saline): 3 of 10 and 10 of 10
survivor count (T/C endpoint: mean survival time, dose: 200.0 mg/kg/injection, schedule: Q01DX001 (ip), vehicle: saline): 5 of 6
survivor count (T/C endpoint: mean survival time, dose: 256.0 mg/kg/injection, schedule: Q01DX001 (oral), vehicle: saline): 2 of 10 and 7 of 10
survivor count (T/C endpoint: mean survival time, dose: 512.0 mg/kg/injection, schedule: Q01DX001 (oral), vehicle: saline): 0 of 10 (2×)
T/C (T/C endpoint: median survival time, dose: 2.0 mg/kg/injection, schedule: Q01DX009 (ip), vehicle: water, evaluated on day 5): 129 % of control
T/C (T/C endpoint: median survival time, dose: 2.0 mg/kg/injection, schedule: Q01DX009 (ip), vehicle: water, evaluated on day 33): 129 % of control [7 of 8 alive]
T/C (T/C endpoint: median survival time, dose: 3.0 mg/kg/injection, schedule: Q01DX001 (ip), vehicle: water, evaluated on day 5): 99, 101, 104, 108, 117 % of control
T/C (T/C endpoint: median survival time, dose: 3.0 mg/kg/injection, schedule: Q01DX001 (ip), vehicle: water, evaluated on day 7): 113 % of control
T/C (T/C endpoint: median survival time, dose: 3.0 mg/kg/injection, schedule: Q01DX001 (ip), vehicle: water, evaluated on day 29): 101 % of control
T/C (T/C endpoint: median survival time, dose: 3.0 mg/kg/injection, schedule: Q01DX001 (ip), vehicle: water, evaluated on day 30): 100 and 108 % of control
T/C (T/C endpoint: median survival time, dose: 3.0 mg/kg/injection, schedule: Q01DX001 (ip), vehicle: water, evaluated on day 33): 117 % of control
T/C (T/C endpoint: median survival time, dose: 3.0 mg/kg/injection, schedule: Q01DX001 (ip), vehicle: water, evaluated on day 35): 113 % of control
T/C (T/C endpoint: median survival time, dose: 3.0 mg/kg/injection, schedule: Q01DX001 (ip), vehicle: water, evaluated on day 47): 104 % of control
T/C (T/C endpoint: median survival time, dose: 3.0 mg/kg/injection, schedule: Q01DX009 (ip), vehicle: distilled water + alcohol): 149 % of control
T/C (T/C endpoint: median survival time, dose: 3.0 mg/kg/injection, schedule: Q01DX009 (ip), vehicle: other): 127 % of control
T/C (T/C endpoint: median survival time, dose: 3.0 mg/kg/injection, schedule: Q01DX009 (ip), vehicle: water, evaluated on day 5): 141 % of control
T/C (T/C endpoint: median survival time, dose: 3.0 mg/kg/injection, schedule: Q01DX009 (ip), vehicle: water, evaluated on day 33): 141 % of control
T/C (T/C endpoint: median survival time, dose: 6.0 mg/kg/injection, schedule: Q01DX001 (ip), vehicle: water, evaluated on day 5): 110, 118, 121, 123, 126 % of control
T/C (T/C endpoint: median survival time, dose: 6.0 mg/kg/injection, schedule: Q01DX001 (ip), vehicle: water, evaluated on day 7): 99, 100, 102 (2×), 104, 125 % of control
T/C (T/C endpoint: median survival time, dose: 6.0 mg/kg/injection, schedule: Q01DX001 (ip), vehicle: water, evaluated on day 26): 100 % of control
T/C (T/C endpoint: median survival time, dose: 6.0 mg/kg/injection, schedule: Q01DX001 (ip), vehicle: water, evaluated on day 29): 118 % of control
T/C (T/C endpoint: median survival time, dose: 6.0 mg/kg/injection, schedule: Q01DX001 (ip), vehicle: water, evaluated on day 30): 110 and 126 % of control
T/C (T/C endpoint: median survival time, dose: 6.0 mg/kg/injection, schedule: Q01DX001 (ip), vehicle: water, evaluated on day 33): 121 % of control
T/C (T/C endpoint: median survival time, dose: 6.0 mg/kg/injection, schedule: Q01DX001 (ip), vehicle: water, evaluated on day 35): 125 % of control
T/C (T/C endpoint: median survival time, dose: 6.0 mg/kg/injection, schedule: Q01DX001 (ip), vehicle: water, evaluated on day 47): 123 % of control
T/C (T/C endpoint: median survival time, dose: 6.0 mg/kg/injection, schedule: Q01DX001 (ip), vehicle: water, evaluated on day 63): 100 and 104 % of control
survivor count (T/C endpoint: median survival time, dose: 6.0 mg/kg/injection, schedule: Q01DX009 (ip), vehicle: other): 8 of 8
T/C (T/C endpoint: median survival time, dose: 12.0 mg/kg/injection, schedule: Q01DX001 (ip), vehicle: water, evaluated on day 5): 132, 134, 140, 154 % of control (2×)
T/C (T/C endpoint: median survival time, dose: 12.0 mg/kg/injection, schedule: Q01DX001 (ip), vehicle: water, evaluated on day 7): 91, 95, 117 (2×), 129, 162 % of control
T/C (T/C endpoint: median survival time, dose: 12.0 mg/kg/injection, schedule: Q01DX001 (ip), vehicle: water, evaluated on day 26): 91 % of control
T/C (T/C endpoint: median survival time, dose: 12.0 mg/kg/injection, schedule: Q01DX001 (ip), vehicle: water, evaluated on day 29): 132 % of control
T/C (T/C endpoint: median survival time, dose: 12.0 mg/kg/injection, schedule: Q01DX001 (ip), vehicle: water, evaluated on day 30): 134 and 154 % of control
T/C (T/C endpoint: median survival time, dose: 12.0 mg/kg/injection, schedule: Q01DX001 (ip), vehicle: water, evaluated on day 33): 140 % of control
T/C (T/C endpoint: median survival time, dose: 12.0 mg/kg/injection, schedule: Q01DX001 (ip), vehicle: water, evaluated on day 35): 162 % of control
T/C (T/C endpoint: median survival time, dose: 12.0 mg/kg/injection, schedule: Q01DX001 (ip), vehicle: water, evaluated on day 47): 154 % of control
T/C (T/C endpoint: median survival time, dose: 12.0 mg/kg/injection, schedule: Q01DX001 (ip), vehicle: water, evaluated on day 63): 95 and 129 % of control
survivor count (T/C endpoint: median survival time, dose: 12.0 mg/kg/injection, schedule: Q01DX009 (ip), vehicle: other): 6 of 8
T/C (T/C endpoint: median survival time, dose: 24.0 mg/kg/injection, schedule: Q01DX001 (ip), vehicle: water, evaluated on day 5): 63, 86, 126 (2×), 159, 170, 179 % of control
T/C (T/C endpoint: median survival time, dose: 24.0 mg/kg/injection, schedule: Q01DX001 (ip), vehicle: water, evaluated on day 7): 88, 91, 96, 145 % of control
T/C (T/C endpoint: median survival time, dose: 24.0 mg/kg/injection, schedule: Q01DX001 (ip), vehicle: water, evaluated on day 26): 91 % of control
T/C (T/C endpoint: median survival time, dose: 24.0 mg/kg/injection, schedule: Q01DX001 (ip), vehicle: water, evaluated on day 29): 179 % of control
T/C (T/C endpoint: median survival time, dose: 24.0 mg/kg/injection, schedule: Q01DX001 (ip), vehicle: water, evaluated on day 30): 86 and 159 % of control
T/C (T/C endpoint: median survival time, dose: 24.0 mg/kg/injection, schedule: Q01DX001 (ip), vehicle: water, evaluated on day 33): 170 % of control
T/C (T/C endpoint: median survival time, dose: 24.0 mg/kg/injection, schedule: Q01DX001 (ip), vehicle: water, evaluated on day 63): 88 [7 of 8 alive] and 145 % of control
survivor count (T/C endpoint: median survival time, dose: 24.0 mg/kg/injection, schedule: Q01DX001 (ip), vehicle: water): 5 of 8 and 7 of 8
survivor count (T/C endpoint: median survival time, dose: 24.0 mg/kg/injection, schedule: Q01DX009 (ip), vehicle: other): 0 of 8
T/C (T/C endpoint: median survival time, dose: 48.0 mg/kg/injection, schedule: Q01DX001 (ip), vehicle: water, evaluated on day 5): 52, 59, 61, 159 % of control (2×)
T/C (T/C endpoint: median survival time, dose: 48.0 mg/kg/injection, schedule: Q01DX001 (ip), vehicle: water, evaluated on day 7): 78, 83, 99, 105 % of control
T/C (T/C endpoint: median survival time, dose: 48.0 mg/kg/injection, schedule: Q01DX001 (ip), vehicle: water, evaluated on day 26): 100 % of control
T/C (T/C endpoint: median survival time, dose: 48.0 mg/kg/injection, schedule: Q01DX001 (ip), vehicle: water, evaluated on day 63): 105 % of control [7 of 8 alive]
survivor count (T/C endpoint: median survival time, dose: 48.0 mg/kg/injection, schedule: Q01DX001 (ip), vehicle: water): 0 of 8, 1 of 8, 2 of 8, 4 of 8 (2×)
